The list is a part of this screen's results and no random one: it is rich in T/C values a quarter to a half above the control, in often repeated tests (any T/C) and in doses without a T/C. Further doses and runs are listed elsewhere. T/C: endpoint of the treated group in % of that of the vehicle group. Some doses have a count of surviving animals in place of a T/C: the source files T/C as zero there, which appears to mark a toxic dose or a test without result, not a measured value. Some survivor counts are full or nearly so, which does not show that the dose was tolerated: the source hardly ever lists a survival T/C far under the control, and the zero likely stands for such cases as well. Counts of survivors are from the toxicity check (mostly the fifth day) where no day follows; animals may have died later. Schedules are NCI's codes, read here as Q, the interval in days (D) or hours (H), X, the number of doses. Some entries hold several experiments; the results are listed from low to high. For survival time, this PubChem deposit counts one and a half times the control or more as active, and values a quarter to a half above the control carry no call in these data; other NCI protocols may use other cut-offs. Some T/C values carry the count of animals alive at the toxicity check (mostly the fifth day); without a count, all were alive then.
Test system: P388 leukemia ip, CD2F1 mice, survival T/C
Test: NCI In Vivo Anticancer Drug Screen. Data for tumor model P388 Leukemia (intraperitoneal) in CD2F1 (CDF1) mice
Conditions: T/C endpoint: median survival time, higher T/C = longer survival
[1] = dose: 128.0 mg/kg/injection, schedule: Q01DX001 (ip), vehicle: saline

COc1cc([C@@H]2c3cc4c(cc3[C@@H](OC3OC5COC(C)OC5C(O)C3O)[C@H]3COC(=O)[C@H]23)OCO4)cc(OC)c1O (some centres undefined) was tested, and the T/C (dose: 4.0 mg/kg/injection, schedule: Q01DX001 (ip), vehicle: water) was 137 and 148 % of control, the T/C (dose: 4.0 mg/kg/injection, schedule: Q01DX005 (ip), vehicle: saline) was 185, 188, 192 [5 of 6 alive], 202 % of control and the T/C (dose: 5.0 mg/kg/injection, schedule: Q04DX002 (ip), vehicle: suspension in saline) was 139 % of control. For the same compound, the T/C (dose: 5.0 mg/kg/injection, schedule: Q04DX003 (ip), vehicle: saline with Tween-80) was 143 % of control, the T/C (dose: 8.0 mg/kg/injection, schedule: Q01DX005 (ip), vehicle: saline) was 221, 223, 237, 247 % of control and the T/C (dose: 8.0 mg/kg/injection, schedule: Q04DX003 (ip), vehicle: saline, evaluated on day 9) was 139 and 167 % of control. For the same compound, the T/C (dose: 8.0 mg/kg/injection, schedule: Q04DX003 (ip), vehicle: saline, evaluated on day 10) was 175 % of control, the T/C (dose: 8.0 mg/kg/injection, schedule: Q04DX003 (ip), vehicle: saline, evaluated on day 30) was 284 % of control and the T/C (dose: 13.0 mg/kg/injection, schedule: Q04DX002 (ip), vehicle: water) was 136 % of control. The T/C (dose: 16.0 mg/kg/injection, schedule: Q01DX001 (ip), vehicle: saline with Tween-80) was 109, 129, 141, 147, 183, 185, 203 % of control, the T/C (dose: 16.0 mg/kg/injection, schedule: Q01DX001 (ip), vehicle: saline, evaluated on day 9) was 112 [6 of 7 alive], 119, 123, 127, 129, 131, 145, 159, 182 % of control and the T/C (dose: 16.0 mg/kg/injection, schedule: Q01DX001 (ip), vehicle: saline, evaluated on day 30) was 228 % of control. The T/C (dose: 16.0 mg/kg/injection, schedule: Q01DX001 (ip), vehicle: water) was 134, 154, 183, 187, 199 % of control, the T/C (dose: 16.0 mg/kg/injection, schedule: Q01DX005 (ip), vehicle: saline) was 262, 265, 291, 319 % of control and the survivor count (dose: 16.0 mg/kg/injection, schedule: Q01DX009 (ip), vehicle: saline) was 10 of 10 and 6 of 6. The T/C (dose: 16.0 mg/kg/injection, schedule: Q04DX003 (ip), vehicle: saline, evaluated on day 9) was 190 and 199 % of control, the T/C (dose: 16.0 mg/kg/injection, schedule: Q04DX003 (ip), vehicle: saline, evaluated on day 10) was 192 % of control and the T/C (dose: 16.0 mg/kg/injection, schedule: Q04DX003 (ip), vehicle: saline, evaluated on day 30) was 284 % of control. The T/C (dose: 18.0 mg/kg/injection, schedule: Q04DX003 (ip), vehicle: saline, evaluated on day 10) was 144 % of control, the T/C (dose: 18.0 mg/kg/injection, schedule: Q04DX003 (ip), vehicle: saline, evaluated on day 44) was 243 % of control and the T/C (dose: 18.0 mg/kg/injection, schedule: Q04DX003 (ip), vehicle: saline, evaluated on day 45) was 214, 223, 232, 287 % of control. For the same compound, the T/C (dose: 18.0 mg/kg/injection, schedule: Q04DX003 (ip), vehicle: saline, evaluated on day 47) was 166, 245, 271, 405 % of control, the T/C (dose: 18.0 mg/kg/injection, schedule: Q04DX003 (ip), vehicle: saline, evaluated on day 60) was 255, 256, 257, 261, 296, 517 % of control and the T/C (dose: 27.0 mg/kg/injection, schedule: Q04DX003 (ip), vehicle: saline, evaluated on day 10) was 187 % of control. For the same compound, the T/C (dose: 27.0 mg/kg/injection, schedule: Q04DX003 (ip), vehicle: saline, evaluated on day 44) was 396 % of control, the T/C (dose: 27.0 mg/kg/injection, schedule: Q04DX003 (ip), vehicle: saline, evaluated on day 45) was 204, 225, 270, 343 % of control and the T/C (dose: 27.0 mg/kg/injection, schedule: Q04DX003 (ip), vehicle: saline, evaluated on day 47) was 175, 255, 274, 405 % of control [8 of 10 alive]. The T/C (dose: 27.0 mg/kg/injection, schedule: Q04DX003 (ip), vehicle: saline, evaluated on day 60) was 229, 289, 517, 530, 540 [9 of 10 alive], 549 % of control, the T/C (dose: 32.0 mg/kg/injection, schedule: Q01DX001 (ip), vehicle: saline with Tween-80) was 125, 127, 155, 165, 198, 221, 222 % of control and the T/C (dose: 32.0 mg/kg/injection, schedule: Q01DX001 (ip), vehicle: saline, evaluated on day 9) was 117 [2 of 5 alive], 118, 125, 126, 129, 144 [6 of 7 alive], 156, 159, 194 % of control [6 of 7 alive]. For the same compound, the T/C (dose: 32.0 mg/kg/injection, schedule: Q01DX001 (ip), vehicle: saline, evaluated on day 30) was 260 % of control, the T/C (dose: 32.0 mg/kg/injection, schedule: Q01DX001 (ip), vehicle: water) was 111, 173, 192, 196, 244 % of control and the T/C (dose: 32.0 mg/kg/injection, schedule: Q01DX005 (ip), vehicle: saline) was 89, 91, 116, 265 % of control. The survivor count (dose: 32.0 mg/kg/injection, schedule: Q01DX009 (ip), vehicle: saline) was 6 of 6, the T/C (dose: 32.0 mg/kg/injection, schedule: Q04DX003 (ip), vehicle: saline, evaluated on day 9) was 142 and 204 % of control and the T/C (dose: 32.0 mg/kg/injection, schedule: Q04DX003 (ip), vehicle: saline, evaluated on day 10) was 175 % of control. The T/C (dose: 32.0 mg/kg/injection, schedule: Q04DX003 (ip), vehicle: saline, evaluated on day 30) was 98 % of control, the T/C (dose: 40.0 mg/kg/injection, schedule: Q04DX003 (ip), vehicle: saline, evaluated on day 10) was 214 % of control and the T/C (dose: 40.0 mg/kg/injection, schedule: Q04DX003 (ip), vehicle: saline, evaluated on day 44) was 396 % of control. The T/C (dose: 40.0 mg/kg/injection, schedule: Q04DX003 (ip), vehicle: saline, evaluated on day 45) was 245 [9 of 10 alive], 362, 405, 441 % of control, the T/C (dose: 40.0 mg/kg/injection, schedule: Q04DX003 (ip), vehicle: saline, evaluated on day 47) was 182, 405 [8 of 10 alive], 412, 431 % of control and the T/C (dose: 40.0 mg/kg/injection, schedule: Q04DX003 (ip), vehicle: saline, evaluated on day 60) was 300, 324, 389, 517 [9 of 10 alive], 540, 555 % of control. For the same compound, the survivor count (dose: 48.0 mg/kg/injection, schedule: Q04DX003 (ip), vehicle: clinical formulation) was 7 of 8, the T/C (dose: 48.0 mg/kg/injection, schedule: Q04DX003 (ip), vehicle: water) was 126 % of control [7 of 8 alive] and the T/C (dose: 50.0 mg/kg/injection, schedule: Q04DX003 (ip), vehicle: water) was 130 and 134 % of control. The T/C (dose: 60.0 mg/kg/injection, schedule: Q04DX002 (ip), vehicle: Klucel (hydroxypropylcellulose) (HPC)) was 128 % of control [7 of 8 alive], the T/C (dose: 64.0 mg/kg/injection, schedule: Q01DX001 (ip), vehicle: saline with Tween-80) was 123, 143, 196, 222, 252, 261, 287 % of control and the T/C (dose: 64.0 mg/kg/injection, schedule: Q01DX001 (ip), vehicle: saline, evaluated on day 9) was 114, 126, 136, 140, 149, 183, 203 [6 of 7 alive], 206 [6 of 7 alive], 215 % of control. For the same compound, the T/C (dose: 64.0 mg/kg/injection, schedule: Q01DX001 (ip), vehicle: saline, evaluated on day 30) was 274 % of control, the T/C (dose: 64.0 mg/kg/injection, schedule: Q01DX001 (ip), vehicle: water) was 124, 179, 227 [8 of 9 alive], 245, 278 % of control and the T/C (dose: 64.0 mg/kg/injection, schedule: Q04DX003 (ip), vehicle: saline, evaluated on day 9) was 109 [4 of 6 alive] and 293 % of control. The T/C (dose: 64.0 mg/kg/injection, schedule: Q04DX003 (ip), vehicle: saline, evaluated on day 10) was 90 % of control [2 of 3 alive], the survivor count (dose: 64.0 mg/kg/injection, schedule: Q04DX003 (ip), vehicle: saline) was 6 of 6 and the survivor count (dose: 80.0 mg/kg/injection, schedule: Q04DX003 (ip), vehicle: clinical formulation) was 6 of 8. The T/C (dose: 96.0 mg/kg/injection, schedule: Q01DX001 (ip), vehicle: saline with Tween-80) was 95, 118, 122, 214, 255, 342 % of control, the T/C (dose: 96.0 mg/kg/injection, schedule: Q01DX001 (ip), vehicle: water) was 141 % of control and the T/C (dose: 128.0 mg/kg/injection, schedule: Q01DX001 (ip), vehicle: saline with Tween-80) was 145 % of control. The T/C [1] was 109, 119 [4 of 6 alive], 152, 164, 172, 181, 236, 277 % of control [6 of 7 alive], the survivor count [1] was 5 of 6 and the survivor count (dose: 128.0 mg/kg/injection, schedule: Q04DX003 (ip), vehicle: saline) was 5 of 6. The survivor count (dose: 500.0 mg/kg/injection, schedule: Q04DX003 (oral), vehicle: clinical formulation) was 1 of 5, the survivor count (dose: 1000.0 mg/kg/injection, schedule: Q04DX003 (oral), vehicle: clinical formulation) was 0 of 5 and the survivor count (dose: 1500.0 mg/kg/injection, schedule: Q04DX003 (oral), vehicle: clinical formulation) was 0 of 5.

For Nc1ccc2c(=O)[nH]cnc2c1, the survivor count (dose: 200.0 mg/kg/injection, schedule: Q01DX005 (ip), vehicle: Klucel (hydroxypropylcellulose) (HPC)) was 3 of 5.

— PubChem BioAssay AID330 (DTP/NCI, 2004)
